From publication PMC8564520
These are yes or no findings as the source states them, for the method shown. Binding seen in cells or lysates may run through a third protein. These calls come from enrichment with a bait or labelling near it, and not all partners need be listed.

The chains behind the UniProt entries cited, without tags or fusion partners.
UniProt Q99873: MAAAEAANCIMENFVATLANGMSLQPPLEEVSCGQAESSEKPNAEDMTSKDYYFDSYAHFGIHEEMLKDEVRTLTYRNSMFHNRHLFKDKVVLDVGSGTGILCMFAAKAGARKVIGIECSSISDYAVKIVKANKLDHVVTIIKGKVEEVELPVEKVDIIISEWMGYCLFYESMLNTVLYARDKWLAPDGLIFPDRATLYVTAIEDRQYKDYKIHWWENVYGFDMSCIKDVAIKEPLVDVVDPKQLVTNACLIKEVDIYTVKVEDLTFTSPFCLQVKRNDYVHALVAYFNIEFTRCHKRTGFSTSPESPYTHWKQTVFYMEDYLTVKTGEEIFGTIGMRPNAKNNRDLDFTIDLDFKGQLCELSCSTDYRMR
UniProt P51784: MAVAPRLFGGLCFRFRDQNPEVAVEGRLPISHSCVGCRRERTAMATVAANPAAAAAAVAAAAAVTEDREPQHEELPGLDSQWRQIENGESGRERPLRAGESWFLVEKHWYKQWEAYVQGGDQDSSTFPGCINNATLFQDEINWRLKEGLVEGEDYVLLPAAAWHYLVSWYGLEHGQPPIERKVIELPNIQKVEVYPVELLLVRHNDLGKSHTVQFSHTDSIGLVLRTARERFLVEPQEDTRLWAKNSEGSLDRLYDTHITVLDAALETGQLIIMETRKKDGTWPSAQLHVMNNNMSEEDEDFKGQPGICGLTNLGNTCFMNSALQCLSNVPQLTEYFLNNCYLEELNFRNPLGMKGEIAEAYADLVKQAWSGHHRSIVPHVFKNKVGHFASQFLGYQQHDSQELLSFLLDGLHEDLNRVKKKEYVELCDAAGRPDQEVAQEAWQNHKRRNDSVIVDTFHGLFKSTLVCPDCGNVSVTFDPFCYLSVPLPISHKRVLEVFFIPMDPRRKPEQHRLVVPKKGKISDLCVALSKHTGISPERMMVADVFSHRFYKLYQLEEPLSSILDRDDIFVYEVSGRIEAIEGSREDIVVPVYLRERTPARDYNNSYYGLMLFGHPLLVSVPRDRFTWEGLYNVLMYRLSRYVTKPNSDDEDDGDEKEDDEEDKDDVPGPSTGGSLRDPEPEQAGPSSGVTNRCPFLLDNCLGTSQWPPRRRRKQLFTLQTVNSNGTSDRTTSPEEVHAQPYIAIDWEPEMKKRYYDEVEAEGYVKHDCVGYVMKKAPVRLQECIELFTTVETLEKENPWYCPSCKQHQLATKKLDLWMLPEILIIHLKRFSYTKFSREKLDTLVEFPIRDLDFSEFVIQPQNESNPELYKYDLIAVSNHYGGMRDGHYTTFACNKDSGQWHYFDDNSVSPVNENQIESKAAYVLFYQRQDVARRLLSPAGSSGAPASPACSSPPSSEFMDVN

Biological target: Flag-PRMT1 (human) (UniProt Q99873)
Experiment: affinity purification with mass spectrometry; Flag-M2 agarose purification from 293T cells stably expressing Flag-PRMT1 against empty-vector cells; 0.1% NP40 lysis buffer, 150 mM NaCl; Flag peptide elution; SDS-PAGE and LC-MS/MS

Substance: USP11 (endogenous, 293T) (from UniProt P51784 1-963) (enzyme)
- binding: binds
